Key:
PRP cell population = experiment: Flow analysis of depletion marker candidates against recoverin; format: cell-based, human; conditions: depletion markers; for % antigen only: other cell types labeled
D75 PRP product = format: cell-based, human; conditions: for % co-expression with RCVRN: dual staining; for % (antigen+/recoverin−): off-target expression

| Molecule | % co-expression with RCVRN (PRP cell population) [%] | % antigen only (PRP cell population) [%] | % co-expression with RCVRN (D75 PRP product) [%] | % (antigen+/recoverin−) (D75 PRP product) [%] |
| --- | --- | --- | --- | --- |
| CD49f: Integrin alpha 6; depletion marker | 11 | 41.2 |  |  |
| CD56 (NCAM): Neuron cell surface adhesion molecule; surface protein evaluated for PRP enrichment |  |  | 37.5 | 61.4 |
| CD81: Tetraspanis protein; surface protein evaluated for PRP enrichment |  |  | 36.7 | 50.3 |
| CD184 (CKCR4): Chemokine receptor that facilitates cellular chemotactic activity |  |  | 32.9 | 51.3 |
| CD298: Sodium/potassium-transporting ATPase subunit beta-3 |  |  | 36.7 | 60.5 |
| CD340: Cell surface receptor tyrosine protein kinase ErbB2; depletion marker | 3.6 | 31.5 |  |  |
| PSA-NCAM: surface protein; protects against light-induced retinal degeneration |  |  | 36.1 | 61 |
| CD133 (clone AC133): surface protein evaluated for PRP enrichment; retinal development (protein, UniProt O43490 20-865, looked up) Prominin-1: GGQPSSTDAPKAWNYELPATNYETQDSHKAGPIGILFELVHIFLYVVQPRDFPEDTLRKFLQKAYESKIDYDKPETVILGLKIVYYEAGIILCCVLGLLFIILMPLVGYFFCMCRCCNKCGGEMHQRQKENGPFLRKCFAISLLVICIIISIGIFYGFVANHQVRTRIKRSRKLADSNFKDLRTLLNETPEQIKYILAQYNTTKDKAFTDLNSINSVLGGGILDRLRPNIIPVLDEIKSMATAIKETKEALENMNSTLKSLHQQSTQLSSSLTSVKTSLRSSLNDPLCLVHPSSETCNSIRLSLSQLNSNPELRQLPPVDAELDNVNNVLRTDLDGLVQQGYQSLNDIPDRVQRQTTTVVAGIKRVLNSIGSDIDNVTQRLPIQDILSAFSVYVNNTESYIHRNLPTLEEYDSYWWLGGLVICSLLTLIVIFYYLGLLCGVCGYDRHATPTTRGCVSNTGGVFLMVGVGLSFLFCWILMIIVVLTFVFGANVEKLICEPYTSKELFRVLDTPYLLNEDWEYYLSGKLFNKSKMKLTFEQVYSDCKKNRGTYGTLHLQNSFNISEHLNINEHTGSISSELESLKVNLNIFLLGAAGRKNLQDFAACGIDRMNYDSYLAQTGKSPAGVNLLSFAYDLEAKANSLPPGNLRNSLKRDAQTIKTIHQQRVLPIEQSLSTLYQSVKILQRTGNGLLERVTRILASLDFAQNFITNNTSSVIIEETKKYGRTIIGYFEHYLQWIEFSISEKVASCKPVATALDTAVDVFLCSYIIDPLNLFWFGIGKATVFLLPALIFAVKLAKYYRRMDSEDVYDDVETIPMKNMENGNNGYHKDHVYGIHNPVMTSPSQH |  |  | 9.1 | 1.5 |
| CD133 (clone 293C3): surface protein evaluated for PRP enrichment; retinal development (protein, UniProt O43490 20-865, looked up) Prominin-1: GGQPSSTDAPKAWNYELPATNYETQDSHKAGPIGILFELVHIFLYVVQPRDFPEDTLRKFLQKAYESKIDYDKPETVILGLKIVYYEAGIILCCVLGLLFIILMPLVGYFFCMCRCCNKCGGEMHQRQKENGPFLRKCFAISLLVICIIISIGIFYGFVANHQVRTRIKRSRKLADSNFKDLRTLLNETPEQIKYILAQYNTTKDKAFTDLNSINSVLGGGILDRLRPNIIPVLDEIKSMATAIKETKEALENMNSTLKSLHQQSTQLSSSLTSVKTSLRSSLNDPLCLVHPSSETCNSIRLSLSQLNSNPELRQLPPVDAELDNVNNVLRTDLDGLVQQGYQSLNDIPDRVQRQTTTVVAGIKRVLNSIGSDIDNVTQRLPIQDILSAFSVYVNNTESYIHRNLPTLEEYDSYWWLGGLVICSLLTLIVIFYYLGLLCGVCGYDRHATPTTRGCVSNTGGVFLMVGVGLSFLFCWILMIIVVLTFVFGANVEKLICEPYTSKELFRVLDTPYLLNEDWEYYLSGKLFNKSKMKLTFEQVYSDCKKNRGTYGTLHLQNSFNISEHLNINEHTGSISSELESLKVNLNIFLLGAAGRKNLQDFAACGIDRMNYDSYLAQTGKSPAGVNLLSFAYDLEAKANSLPPGNLRNSLKRDAQTIKTIHQQRVLPIEQSLSTLYQSVKILQRTGNGLLERVTRILASLDFAQNFITNNTSSVIIEETKKYGRTIIGYFEHYLQWIEFSISEKVASCKPVATALDTAVDVFLCSYIIDPLNLFWFGIGKATVFLLPALIFAVKLAKYYRRMDSEDVYDDVETIPMKNMENGNNGYHKDHVYGIHNPVMTSPSQH |  |  | 9.7 | 1.8 |
| CD147: surface protein, functions in adhesion (protein, UniProt P35613 22-385, looked up) Basigin: AAGFVQAPLSQQRWVGGSVELHCEAVGSPVPEIQWWFEGQGPNDTCSQLWDGARLDRVHIHATYHQHAASTISIDTLVEEDTGTYECRASNDPDRNHLTRAPRVKWVRAQAVVLVLEPGTVFTTVEDLGSKILLTCSLNDSATEVTGHRWLKGGVVLKEDALPGQKTEFKVDSDDQWGEYSCVFLPEPMGTANIQLHGPPRVKAVKSSEHINEGETAMLVCKSESVPPVTDWAWYKITDSEDKALMNGSESRFFVSSSQGRSELHIENLNMEADPGQYRCNGTSSKGSDQAIITLRVRSHLAALWPFLGIVAEVLVLVTIIFIYEKRRKPEDVLDDDDAGSAPLKSSGQHQNDKGKNVRQRNSS |  |  | 38.1 | 43.5 |
| CD200: surface protein; cellular maintenance and retinal homeostasis (protein, UniProt P41217 31-278, looked up) OX-2 membrane glycoprotein: QVQVVTQDEREQLYTPASLKCSLQNAQEALIVTWQKKKAVSPENMVTFSENHGVVIQPAYKDKINITQLGLQNSTITFWNITLEDEGCYMCLFNTFGFGKISGTACLTVYVQPIVSLHYKFSEDHLNITCSATARPAPMVFWKVPRSGIENSTVTLSHPNGTTSVTSILHIKDPKNQVGKEVICQVLHLGTVTDFKQTVNKGYWFSVPLLLSIVSLVILLVLISILLYWKRHRNQDRGELSQGVQKMT |  |  | 35.9 | 63.2 |
| CD276: surface protein; cellular activation (protein, UniProt Q5ZPR3 29-534, looked up) CD276 antigen: LEVQVPEDPVVALVGTDATLCCSFSPEPGFSLAQLNLIWQLTDTKQLVHSFAEGQDQGSAYANRTALFPDLLAQGNASLRLQRVRVADEGSFTCFVSIRDFGSAAVSLQVAAPYSKPSMTLEPNKDLRPGDTVTITCSSYQGYPEAEVFWQDGQGVPLTGNVTTSQMANEQGLFDVHSILRVVLGANGTYSCLVRNPVLQQDAHSSVTITPQRSPTGAVEVQVPEDPVVALVGTDATLRCSFSPEPGFSLAQLNLIWQLTDTKQLVHSFTEGRDQGSAYANRTALFPDLLAQGNASLRLQRVRVADEGSFTCFVSIRDFGSAAVSLQVAAPYSKPSMTLEPNKDLRPGDTVTITCSSYRGYPEAEVFWQDGQGVPLTGNVTTSQMANEQGLFDVHSVLRVVLGANGTYSCLVRNPVLQQDAHGSVTITGQPMTFPPEALWVTVGLSVCLIALLVALAFVCWRKIKQSCEEENAGAEDQDGEGEGSKTALQPLKHSDSKEDDGQEIA |  |  | 39.7 | 58.7 |
| CD344 (Frizzled): surface protein; bipolar cell development, RPE development (protein, UniProt Q9ULV1 37-537, looked up) Frizzled-4: FGDEEERRCDPIRISMCQNLGYNVTKMPNLVGHELQTDAELQLTTFTPLIQYGCSSQLQFFLCSVYVPMCTEKINIPIGPCGGMCLSVKRRCEPVLKEFGFAWPESLNCSKFPPQNDHNHMCMEGPGDEEVPLPHKTPIQPGEECHSVGTNSDQYIWVKRSLNCVLKCGYDAGLYSRSAKEFTDIWMAVWASLCFISTAFTVLTFLIDSSRFSYPERPIIFLSMCYNIYSIAYIVRLTVGRERISCDFEEAAEPVLIQEGLKNTGCAIIFLLMYFFGMASSIWWVILTLTWFLAAGLKWGHEAIEMHSSYFHIAAWAIPAVKTIVILIMRLVDADELTGLCYVGNQNLDALTGFVVAPLFTYLVIGTLFIAAGLVALFKIRSNLQKDGTKTDKLERLMVKIGVFSVLYTVPATCVIACYFYEISNWALFRYSADDSNMAVEMLKIFMSLLVGITSGMWIWSAKTLHTWQKCSNRLVNSGKVKREKRGNGWVKPGKGSETVV |  |  | 33.3 | 14.1 |
| PTK7: surface protein; cellular adhesion, signal transduction, RPC (protein, UniProt Q13308 31-1070, looked up) Inactive tyrosine-protein …: AIVFIKQPSSQDALQGRRALLRCEVEAPGPVHVYWLLDGAPVQDTERRFAQGSSLSFAAVDRLQDSGTFQCVARDDVTGEEARSANASFNIKWIEAGPVVLKHPASEAEIQPQTQVTLRCHIDGHPRPTYQWFRDGTPLSDGQSNHTVSSKERNLTLRPAGPEHSGLYSCCAHSAFGQACSSQNFTLSIADESFARVVLAPQDVVVARYEEAMFHCQFSAQPPPSLQWLFEDETPITNRSRPPHLRRATVFANGSLLLTQVRPRNAGIYRCIGQGQRGPPIILEATLHLAEIEDMPLFEPRVFTAGSEERVTCLPPKGLPEPSVWWEHAGVRLPTHGRVYQKGHELVLANIAESDAGVYTCHAANLAGQRRQDVNITVATVPSWLKKPQDSQLEEGKPGYLDCLTQATPKPTVVWYRNQMLISEDSRFEVFKNGTLRINSVEVYDGTWYRCMSSTPAGSIEAQARVQVLEKLKFTPPPQPQQCMEFDKEATVPCSATGREKPTIKWERADGSSLPEWVTDNAGTLHFARVTRDDAGNYTCIASNGPQGQIRAHVQLTVAVFITFKVEPERTTVYQGHTALLQCEAQGDPKPLIQWKGKDRILDPTKLGPRMHIFQNGSLVIHDVAPEDSGRYTCIAGNSCNIKHTEAPLYVVDKPVPEESEGPGSPPPYKMIQTIGLSVGAAVAYIIAVLGLMFYCKKRCKAKRLQKQPEGEEPEMECLNGGPLQNGQPSAEIQEEVALTSLGSGPAATNKRHSTSDKMHFPRSSLQPITTLGKSEFGEVFLAKAQGLEEGVAETLVLVKSLQSKDEQQQLDFRRELEMFGKLNHANVVRLLGLCREAEPHYMVLEYVDLGDLKQFLRISKSKDEKLKSQPLSTKQKVALCTQVALGMEHLSNNRFVHKDLAARNCLVSAQRQVKVSALGLSKDVYNSEYYHFRQAWVPLRWMSPEAILEGDFSTKSDVWAFGVLMWEVFTHGEMPHGGQADDEVLADLQAGKARLPQPEGCPSKLYRLMQRCWALSPKDRPSFSEIASALGDSTVDSKP |  |  | 13.6 | 35.2 |
| Podoplanin: Mucin-type transmembrane protein; depletion marker (protein, UniProt Q86YL7 23-162, looked up) Podoplanin: ASTGQPEDDTETTGLEGGVAMPGAEDDVVTPGTSEDRYKSGLTTLVATSVNSVTGIRIEDLPTSESTVHAQEQSPSATASNVATSHSTEKVDGDTQTTVEKDGLSTVTLVGIIVGVLLAIGFIGAIIVVVMRKMSGRYSP | 3.6 | 32.5 |  |  |
